Test results reported in patent US12161635B2, “Compositions and methods of treating PIK3CA helical domain mutant cancers” (CASE WESTERN RESERVE UNIVERSITY, priority 2020, dated 2024).
At least one structure is not confirmed: it was looked up by name or label, or the drawing left a doubt.

How the values were obtained:
[1] = system: DLD1 cells, which harbor a PIK3CA E545K mutation; assay: Subcutaneous xenograft tumors established from DLD1 cells; format: in vivo, athymic nude mice; conditions: Example 2, FIG. 14; DLD1 xenografts, start at 200 mm^3; Tazemetostat 500 mg/kg oral twice daily, Alpelisib 12.5 mg/kg once daily
Protocol: FIGS. 14(A-B) illustrate three million of DLD1 cells were injected subcutaneously into athymic nude mice. […] Statistical analyses, two-way ANOVA.
Xenografts were established as described previously.

[2] = system: H3K27me3; assay: Western blot of lysates of PIK3CA E542K mutant PDX tumors: H3K27me3; format: in vivo, athymic nude mice; conditions: compared to vehicle control, FIG. 6H

Compound: CCN(c1cc(-c2ccc(CN3CCOCC3)cc2)cc(C(=O)NCc2c(C)cc(C)[nH]c2=O)c1C)C1CCOCC1 [Tazemetostat, tazemetostat]
- xenograft tumor growth / tumor regression [1]: only slowed down tumor growth
- H3K27me3 levels [2]: reduced H3K27me3 only
